Source: patent publication US20100310549A1 (Bristol-Myers Squibb, published 2010)
Changes are numbered by the printed parent chain. No constants are given. Whether binding was seen depends on the method and setting. Some entries that bind do so weakly or less than the wild type. For some assays here: Tags and fused reporters may be left off the sequences shown. Blank lines part the entries; values can stand above or below the binder they belong to.

Amino acid sequences for entries named in this document (tags omitted). A change or cut given only in a name is not applied to a line headed by its entry. Residues count along the entry.
UniProt P35918, residues 20-762: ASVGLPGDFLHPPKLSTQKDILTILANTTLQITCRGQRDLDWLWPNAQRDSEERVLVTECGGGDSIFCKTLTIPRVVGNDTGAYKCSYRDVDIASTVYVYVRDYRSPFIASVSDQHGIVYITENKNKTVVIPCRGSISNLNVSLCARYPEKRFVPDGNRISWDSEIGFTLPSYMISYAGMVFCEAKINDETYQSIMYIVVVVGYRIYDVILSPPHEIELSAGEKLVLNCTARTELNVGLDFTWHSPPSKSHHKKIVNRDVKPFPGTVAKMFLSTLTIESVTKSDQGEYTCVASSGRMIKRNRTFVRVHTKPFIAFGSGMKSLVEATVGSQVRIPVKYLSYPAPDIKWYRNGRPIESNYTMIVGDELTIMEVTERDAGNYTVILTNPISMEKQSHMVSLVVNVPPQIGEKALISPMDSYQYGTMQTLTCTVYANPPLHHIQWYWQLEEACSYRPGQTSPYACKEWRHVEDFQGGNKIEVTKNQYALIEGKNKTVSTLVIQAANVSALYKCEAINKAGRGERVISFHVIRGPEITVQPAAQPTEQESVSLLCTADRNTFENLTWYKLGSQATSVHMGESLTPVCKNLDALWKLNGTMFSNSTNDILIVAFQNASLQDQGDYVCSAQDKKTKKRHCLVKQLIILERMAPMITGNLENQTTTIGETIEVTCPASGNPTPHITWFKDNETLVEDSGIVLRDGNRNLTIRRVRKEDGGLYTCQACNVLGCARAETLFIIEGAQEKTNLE
UniProt P35968, residues 20-1356: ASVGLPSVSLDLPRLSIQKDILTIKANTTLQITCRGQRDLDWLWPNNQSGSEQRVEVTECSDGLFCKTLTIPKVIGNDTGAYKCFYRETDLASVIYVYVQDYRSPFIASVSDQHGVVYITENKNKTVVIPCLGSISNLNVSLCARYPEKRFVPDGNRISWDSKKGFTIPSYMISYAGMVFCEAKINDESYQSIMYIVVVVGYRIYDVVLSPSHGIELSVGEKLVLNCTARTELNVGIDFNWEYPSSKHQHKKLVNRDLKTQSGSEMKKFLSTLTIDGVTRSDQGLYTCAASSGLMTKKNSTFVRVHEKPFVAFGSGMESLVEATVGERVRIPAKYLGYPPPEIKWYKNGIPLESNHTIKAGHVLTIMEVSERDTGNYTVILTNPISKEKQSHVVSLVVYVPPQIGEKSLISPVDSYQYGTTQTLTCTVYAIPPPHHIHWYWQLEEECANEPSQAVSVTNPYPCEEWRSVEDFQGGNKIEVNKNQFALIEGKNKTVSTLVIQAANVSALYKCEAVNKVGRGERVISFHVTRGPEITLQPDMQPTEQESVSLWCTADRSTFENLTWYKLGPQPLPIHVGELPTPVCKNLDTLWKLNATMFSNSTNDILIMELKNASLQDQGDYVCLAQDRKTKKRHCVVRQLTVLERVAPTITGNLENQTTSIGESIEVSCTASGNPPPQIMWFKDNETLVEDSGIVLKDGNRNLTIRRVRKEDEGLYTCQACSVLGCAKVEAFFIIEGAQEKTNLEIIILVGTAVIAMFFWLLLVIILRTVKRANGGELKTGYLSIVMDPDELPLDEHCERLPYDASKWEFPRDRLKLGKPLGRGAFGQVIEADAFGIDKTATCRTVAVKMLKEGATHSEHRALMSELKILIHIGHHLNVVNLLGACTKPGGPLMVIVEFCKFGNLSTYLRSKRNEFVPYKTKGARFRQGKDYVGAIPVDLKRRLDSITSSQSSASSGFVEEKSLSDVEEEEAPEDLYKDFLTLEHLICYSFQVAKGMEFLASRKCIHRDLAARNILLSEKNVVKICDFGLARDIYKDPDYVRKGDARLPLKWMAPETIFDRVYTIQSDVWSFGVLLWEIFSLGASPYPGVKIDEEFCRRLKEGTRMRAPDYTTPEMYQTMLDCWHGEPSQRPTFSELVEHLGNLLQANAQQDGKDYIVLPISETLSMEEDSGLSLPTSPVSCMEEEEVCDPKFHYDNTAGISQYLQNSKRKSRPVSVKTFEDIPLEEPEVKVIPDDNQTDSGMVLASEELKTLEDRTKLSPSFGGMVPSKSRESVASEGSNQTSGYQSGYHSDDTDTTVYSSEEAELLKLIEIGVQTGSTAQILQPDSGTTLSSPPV

Legend:
[1] = molecular target: mouse vascular endothelial growth factor receptor-2 Fc chimera (Flk-1-Fc) (mouse) (UniProt P35918); experiment: radioactive equilibrium binding assay, 1 nM Flk-1-Fc, percent bound, average of 3 experiments
[2] = molecular target: mouse vascular endothelial growth factor receptor-2 Fc chimera (Flk-1-Fc) (mouse) (UniProt P35918); experiment: radioactive equilibrium binding assay, saturation binding, Flk-1-Fc 0-50 nM
[3] = molecular target: full-length human KDR on CHO-KDR cells (human) (UniProt P35968); experiment: flow cytometry on CHO-KDR cells, His6-tagged binder, anti-His6 MAb and Alexa Fluor 488 anti-mouse antibody

binding [1]: binds
binding [2]: binds
B1: E6 (designed binder)
chain: EVVAATPTSLLISWRHPHFPTRYYRITYGETGGNSPVQEFTVPLQPPTATISGLKPGVDYTITGYAVTDGWNGRLLSIPISINYRT

binding [3]: binds
B2: E19, E. coli-expressed, His6 (designed binder)
chain: EVVAATPTSLLISWRHPHFPTRYYRITYGETGGNSPVQEFTVPLQPPTATISGLKPGVDYTITGYAVTVERNGRHLMTPISINYRTEIDKPSQHHHHHH
notes: soluble E. coli form; N-terminal residues added for expression not described

binding [3]: binds
B3: E29, E. coli-expressed, His6 (designed binder)
chain: B2 chain with H75V
notes: as for B2

binding [3]: binds
B4: E18, E. coli-expressed, His6 (designed binder)
chain: B2 chain with H75E, M77N
notes: as for B2
